# Data from PubChem BioAssay AID1487 (National Center for Advancing Translational Sciences (NCATS), 2009).
# The other results are listed elsewhere or left out. Shown are side measurements of this screen, not its main read-out; they come without a call. The list favours compounds with an active or inconclusive main result. Potencies come from curve fits of mixed quality, noted in brackets.
# Assay: qHTS Assay for Modulators of Lamin A Splicing
# Conditions: HeLa LMNA splicing GFP/RFP minigene ratio, 48 h
# Summary of the method: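 S3 HeLa cells stably expressing lamin A-EGFP splicing minigene plus DsRed2, 600 cells/well, 48 h compound exposure at 37C. Laser-scanning cytometry; analysed as GFP (500-530 nm)/RFP (575-640 nm) total intensity ratio; 0.5% DMSO vehicle.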
# [1] = measured here: GFP splicing reporter channel
# [2] = measured here: RFP viability control channel
SMILES,AC50 [1],AC50 [2]
O=C(Nc1nnc(S(=O)(=O)N2CCCC2)s1)c1ccc(F)cc1,"35.5 µM [falling, partial curve, poor fit]",–
CN1c2ccc(Cl)cc2C(=O)NC1C1CC=CCC1 (stereo not given),"0.251 µM [rising, full curve, poor fit]","0.158 µM [rising, full curve, poor fit]"
O=[N+]([O-])c1cc(/C=N/O)ccc1N1CCCC1,"11.2 µM [rising, partial curve, poor fit]",–
COCCNc1nnnc2c1sc1nc(N3CCOCC3)c3c(c12)CCCC3,–,"3.16 µM [falling, single point]"
Cc1cccc(CSC(Nc2ccc(F)cc2)=C(C#N)C#N)c1,"12.6 µM [rising, partial curve, poor fit]","11.2 µM [rising, partial curve]"
COC(=O)C1=C(C)NC(=O)/C1=C\c1cc(C)n(-c2cccc(C)c2)c1C,–,"10 µM [rising, single point]"
O=C1c2c(O)cccc2Cc2cccc(O)c21,"0.631 µM [falling, single point]",–
COc1ccc2[nH]c(=O)c3c(c2c1)OC(C)(C)C=C3,"25.1 µM [rising, single point]","35.5 µM [rising, single point]"
CN(C)c1ccc(C(=O)Nc2nc3c(s2)CCCC3)cc1,"11.2 µM [rising, partial curve, poor fit]","11.2 µM [rising, partial curve, poor fit]"
CC1CCCN(C(=O)N2c3ccccc3Sc3ccccc32)C1 (stereo not given),–,"15.8 µM [rising, single point]"
Nc1[nH]c(N=NC(=O)c2ccccc2O)c2ccccc12,"5.01 µM [falling, partial curve, poor fit]","10 µM [falling, partial curve]"
O=C(CCn1cccn1)Nc1cccc(C(F)(F)F)c1,"0.0501 µM [falling, full curve, poor fit]","0.1 µM [falling, full curve]"
O=C(NC(=S)Nc1ccc(N2CCN(C(=O)c3ccccc3)CC2)cc1)c1cccs1,"3.98 µM [falling, full curve]","4.47 µM [falling, full curve, poor fit]"
O=C(CC(=O)Nc1ccc(Cl)c(Cl)c1)N/N=C/c1ccc(O)cc1,–,"14.1 µM [rising, single point]"
Cc1csc(NC(=O)Nc2cccc(Cl)c2)n1,–,"20 µM [rising, partial curve, poor fit]"
COc1ccc(CCNC(=O)CSc2nc3ccccc3nc2Cc2ccc(Cl)cc2)cc1OC,"0.708 µM [rising, single point]",–
Cc1ccc(Nc2cc(C)nc(-c3ccccc3O)n2)cc1,"22.4 µM [rising, single point]",–
CCC(Sc1nc2c(cnn2-c2ccc(Cl)cc2)c(=O)[nH]1)C(=O)OC (stereo not given),–,"0.0126 µM [falling, full curve, poor fit]"

SMILES,AC50 [1],AC50 [2]
O=C(c1ccccc1Sc1ccc([N+](=O)[O-])cc1)N1CCCCC1,–,"35.5 µM [rising, single point]"
Cc1ccc(SCC(=O)NCCSCc2ccccc2)cc1,"0.631 µM [rising, full curve, poor fit]",–
COc1cccc(NC(=O)C(Cc2ccccc2)NC(=O)C2CCC(C)CC2)c1 (stereo not given),"28.2 µM [rising, single point]","31.6 µM [rising, single point]"
O=C1C2=C(c3ccccc31)[N+](=O)[C@@H]1CCCC[C@@H]1N2[O-],–,"0.2 µM [falling, partial curve]"
CCOC(=O)c1ccc(S(=O)(=O)NCC(C)(C)N2CCOCC2)cc1,"0.00355 µM [falling, full curve, poor fit]",–
Cc1cccc(S(=O)(=O)C(C#N)c2nc3ccccc3nc2N2CCOCC2)c1 (stereo not given),–,"20 µM [rising, partial curve, poor fit]"
COc1ccc(C(=O)O/N=C(\N)c2ccccc2)c(OC)c1,"5.62 µM [rising, partial curve, poor fit]","6.31 µM [rising, partial curve, poor fit]"
O=C(c1cc(=O)[nH]c2ccccc12)N1CCN(S(=O)(=O)c2ccc3ccccc3c2)CC1,–,"0.141 µM [rising, full curve]"
CCS(=O)(=O)Nc1cccc(-c2nc3cccnc3s2)c1C,–,"14.1 µM [rising, partial curve, poor fit]"
CC(C)C[C@@H](N)C(=O)O,"35.5 µM [falling, single point]","0.501 µM [falling, partial curve]"
Cc1cc(SCC(=O)Nc2ccc(C(F)(F)F)cc2)nc(=O)[nH]1,"0.282 µM [falling, full curve]","10 µM [falling, partial curve, poor fit]"
N#Cc1c(NC(=O)CSc2nc3ccccc3s2)sc2c1CCCC2,–,"15.8 µM [rising, partial curve, poor fit]"
O=C(CCCO)N/N=C/c1cc(Br)ccc1O,"2.82 µM [rising, partial curve]","3.98 µM [rising, partial curve]"
CCOCCCNC(=O)c1ccc2c(c1)ncn2C1CCCC1,–,"10 µM [rising, partial curve]"
Cn1c(SCc2nc(-c3ccc(Cl)cc3)no2)nnc1-c1ccccc1,"15.8 µM [rising, partial curve]","15.8 µM [rising, single point]"
COc1ccccc1NS(=O)(=O)c1cc(NC(=O)Nc2ccc(Cl)cc2Cl)ccc1N1CCCCC1,"11.2 µM [rising, single point]","11.2 µM [rising, partial curve]"
CCOc1ccc(Cc2c(Cl)nc(SC)nc2N(C)C)cc1,"35.5 µM [falling, single point]","2.82 µM [rising, single point]"

# Pulled by compound from above (three):
SMILES,AC50 [1],AC50 [2]
CCOCCCNC(=O)c1ccc2c(c1)ncn2C1CCCC1,–,"10 µM [rising, partial curve]"
COc1cccc(NC(=O)C(Cc2ccccc2)NC(=O)C2CCC(C)CC2)c1 (stereo not given),"28.2 µM [rising, single point]","31.6 µM [rising, single point]"
O=C1C2=C(c3ccccc31)[N+](=O)[C@@H]1CCCC[C@@H]1N2[O-],–,"0.2 µM [falling, partial curve]"
